Data: PubChem BioAssay AID493014 (National Center for Advancing Translational Sciences (NCATS), 2011)
Hit rate of the full screen: of about 340,000 compounds, about 170 (0.05%) were called active. The inconclusive results got no clear call from the source; some entries with a clear call stand among them for comparison. Calls come from the whole dose curve; as a rule, active = well fitted inhibition curve with a large enough effect in the signal ratio, with a control signal flat (not every such curve was filed as active); inconclusive = small, poorly fitted or top-dose-only effect, or effect the other way, or a change in a side signal; inactive = flat fitted curve, though single readings scatter; the % refers to the signal ratio. Where the call is inconclusive, the potency comes from a doubtful curve fit.

Test: qHTS Assay to Find Inhibitors of Chronic Active B-Cell Receptor Signaling;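 for activity change, negative = inhibition: plate controls were basal doxycycline-induced cells for no effect and cells given 10 µM MG132 for full effect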
Details: ABC-DLBCL IkBa-CBG/CBR reporter, luminescence ratio (green luciferase fused to IkBa over red control in TMD8 lymphoma cells), 4 h; activity change, negative = inhibition: at 46.1 µM (top of the series)
In short: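 Doxycycline induced both beetle luciferases in TMD8 lymphoma cells; IKK-driven degradation limits the IkappaBalpha-fused green signal, while red luminescence normalises for cell number and nonspecific effects. Compounds tested up to 46 uM, 4 hrs.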
Potency is the fitted concentration of half-maximal effect.

SMILES | activity change, negative = inhibition | Potency
CN1CC(=O)N(C)c2nc(Br)n(C)c2C1=O | inconclusive: -7.82% | –
CCOC(=O)N1CCN(c2nc(C)c3c(n2)CC(C)CC3=O)CC1 (stereo not drawn) | inconclusive: 0.633% | –
O=C(CSc1nnnn1-c1ccccc1)NC1CCCc2ccccc21 (stereo not drawn) | – | inconclusive: 29.1 µM [falling, single point]
COc1ccccc1NC(=O)C/C(C)=N/NC(=O)C12CC3CC(CC(C3)C1)C2 | – | inconclusive: 12.6 µM [falling, partial curve]
Cc1cccc(-c2noc(C(C)NC(=O)c3ccco3)n2)c1 (stereo not drawn) | inconclusive: 5.46% | –
O=C(CSc1nnc(Cc2cccs2)n1-c1ccccc1)Nc1ccc2c(c1)OCCO2 | inconclusive: 0.367% | –
CC(c1ccccc1)N1C(=O)CC(Sc2ncccc2C(=O)O)C1=O (stereo not drawn) | inconclusive: 2.52% | –
COc1ccc(-c2cc(C(=O)NC(C(=O)O)C(C)C)c(C)o2)cc1OC (stereo not drawn) | inconclusive: 19.4% | –
COC(=O)c1ccccc1NC(=S)NC(=O)c1ccccc1C | – | inconclusive: 10 µM [falling, partial curve, poor fit]
O=C(CSc1nnc(-c2ccc(Br)cc2)n1C1CCCCC1)N1CCCC1 | – | inconclusive: 5.17 µM [falling, partial curve]
COc1ccc(CSCC(=O)N/N=C/c2ccc(OCC(=O)NCc3ccco3)cc2)cc1 | inactive | –
Cc1ccc(NC(=S)NCc2cccs2)cc1 | inconclusive: 1.72% | –
CCOc1ccc(N2Nc3n[nH]c(N)c3N2)cc1 | inconclusive: -9.68% | –
O=C(c1ccc2c(=O)n(C3CCCC3)c(=S)[nH]c2c1)N1CCc2ccccc21 | inactive | –
COc1ccc2[nH]c3c(c2c1)CCN1C(=O)C(CC(=O)NCCN2CCOCC2)C[C@H](C(=O)N2CCCCC2)[C@@]31CCc1ccccc1 (stereo partly drawn) | inactive | –
O=C(OCc1ccccc1)c1cccc(-c2nnn(Cc3ccccc3)n2)c1 | – | inconclusive: 13 µM [rising, partial curve]
Cc1ccnc(Nc2nc(-c3c(C)nc4sccn34)cs2)c1 | – | inconclusive: 29.1 µM [rising, partial curve, poor fit]
CCC(=O)Nc1ccc2oc(-c3cccnc3)nc2c1 | inconclusive: 3.4% | –
COc1ccc(C(=S)NCS(=O)(=O)c2ccc(C)cc2)cc1 | – | inconclusive: 29.1 µM [cytotoxic, single point]
Nc1[nH]nc2ncc3cc4ccccc4nc3c12 | – | inconclusive: 17.8 µM [falling, partial curve, poor fit]
Cc1nc2sccc2c(=O)n1-c1cccc(Cl)c1 | inconclusive: 5.56% | –

SMILES | activity change, negative = inhibition | Potency
Cc1cccc(C)c1NC(=O)CCCCCC1NC(=O)NC1C (stereo not drawn) | inactive | –
COc1ccc(-c2cc(C(=O)N3CCN(c4ccccc4O)CC3)c3ccccc3n2)cc1 | inconclusive: 4.59% | –
COc1cc(NC(=O)CNc2cccc(S(=O)(=O)N3CCCC3)c2)cc(OC)c1 | inconclusive: -8.09% | –
O=C(NC1CC1)c1ccc(N2CCCCC2)c([N+](=O)[O-])c1 | inconclusive: 2.14% | –
CCOc1ccc(S(=O)(=O)Nc2ccc3oc(C)c(C(=O)OC(C)C)c3c2)cc1 | inconclusive: 2.34% | –
COC(=O)c1ccccc1NC(=O)c1sc(N)nc1C | – | inconclusive: 11.2 µM [falling, partial curve, poor fit]
CCOC(=O)C(NC(=O)c1ccccc1)(OCc1ccc(F)cc1)C(F)(F)F (stereo not drawn) | inactive | –
O=C(Cc1ccccc1)Nc1cc(C(=O)c2ccccc2)ccc1N1CCOCC1 | – | inconclusive: 23.1 µM [rising, single point]
CCCCn1c(N)c(N(CC(C)C)C(=O)CSCc2cccc(C)c2)c(=O)[nH]c1=O | inactive | –
Cc1nnc(N/N=C/c2ccccc2F)n1N | – | inconclusive: 35.5 µM [falling, partial curve, poor fit]
COc1ccc(NC(=O)CSc2ccc(-c3ccco3)nn2)c(OC)c1 | inconclusive: 2.78% | –
COCCCN(C(C)=O)c1nc(-c2ccc(OC)cc2)cs1 | inconclusive: -14.6% | –
O=C(CCCN1C(=O)/C(=C/c2cccs2)SC1=S)NNC(=O)c1ccncc1 | inconclusive: -16.7% | –
Cc1cc([N+](=O)[O-])cc(C)c1OCC(=O)N/N=C/c1ccc(OC(=O)c2ccccc2Br)cc1 | inactive | –
Cc1ccc(S(=O)(=O)Nc2c(NC3CCCCC3)c3ccccc3oc2=O)c(C)c1 | – | inconclusive: 10 µM [falling, partial curve]
O=C(NCCc1ccc(Cl)cc1)C1=CC=CN2CCS(=O)(=O)N=C12 | inactive | –
Cc1ccc(S(=O)(=O)Nc2ccc3c(c2)C(=O)NC3=O)cc1[N+](=O)[O-] | inactive | –
O=C1C(Cl)=C(Nc2ccc3cn[nH]c3c2)C(=O)c2ccccc21 | inconclusive: 26.6% | –
O=C(/C=C\Nc1ccc2c(c1)OCO2)c1cccs1 | – | inconclusive: 31.6 µM [rising, single point]
COc1ccccc1-c1ccc(NC2CCCCC2)nn1 | inconclusive: -4.6% | –
CC(C)(C)OC(=O)N1CCC(NC(=O)c2nc[nH]c2C(=O)N2CCN(c3ccccc3)CC2)CC1 | inactive | –

SMILES | activity change, negative = inhibition | Potency
CCC(CC)C(=O)c1c[nH]c(C(=O)NCc2ccccn2)c1 | inconclusive: 1.83% | –
CCCc1nnc(SCc2ccc(OC)cc2)n1N | inactive | –
Cc1cccc(CN2C[C@]34C=C[C@@H](C[C@@H]3S2(=O)=O)O4)c1 | inconclusive: 0.133% | –
Cc1ccc(NC(=O)c2nn(C34CC5CC(CC(C5)C3)C4)cc2[N+](=O)[O-])cc1 | inconclusive: 2.64% | –
CN(CC(=O)N1CCN(c2ccc(F)cc2)CC1)S(=O)(=O)c1ccc(F)cc1 | inconclusive: 12.4% | –
CCOc1ccc(-c2c(=O)n(OCc3nc4ccccc4[nH]3)c3ccccc3[n+]2[O-])cc1 | inconclusive: 0.756% | –
COC(=O)c1ccc(/C=N\NC(=O)c2ccc(C)cc2Cl)cc1 | inconclusive: -9.51% | –
Cc1cc(N=NC(=O)c2ccccc2O)c2ccccc2c1O | inconclusive: 271% | –
CCC(C)n1ncn(-c2ccc(N3CCN(c4ccc(OCC5COC(Cn6cncn6)(c6ccc(Cl)cc6Cl)O5)cc4)CC3)cc2)c1=O (stereo not drawn) | – | inconclusive: 0.251 µM [rising, full curve, poor fit]
O=C(Oc1ccc(O)cc1)C12CC3CC(CC(C3)C1)C2 | – | inconclusive: 4.47 µM [rising, full curve]
O=C(Nc1ccccc1Cl)c1ccccc1Cl | inconclusive: 0.102% | –
Cc1cccc(N2CCN(C(=O)c3cc(S(=O)(=O)N4CCCC4)cn3C)CC2)c1C | inactive | –
S=C(NCCc1ccccn1)Nc1ccccc1Cl | inactive | –
O=C(CSc1ncn[nH]1)Nc1ccc2c(c1)OCCO2 | inconclusive: -26% | –
O=S(=O)(CCOc1ccccc1)N1CCOCC1 | inconclusive: 1.42% | –
COc1ccccc1NC(=O)C/C(C)=N/NC(=O)COc1c(Br)cc(Br)cc1OC | – | inconclusive: 17.8 µM [falling, single point]
COc1ccc(-c2ccoc2)cc1[C@H]1[C@H]2C=CC[C@@H](C)[C@@H]2C(=O)N1Cc1ccccc1 | inconclusive: -7.48% | –
CN1c2ccccc2C(=O)NC1c1ccc(Cl)cc1 (stereo not drawn) | inactive | –
Cc1n[nH]c(C)c1S(=O)(=O)N1CCCC(C(=O)NCc2ccc(F)cc2)C1 (stereo not drawn) | inactive | –
O=C(Cn1cnc2ccccc21)Nc1ccc(C(=O)O)cc1 | inconclusive: 2.81% | –
COC(=O)c1c(NC(=O)c2ccccc2C(=O)O)sc2c1CCC2 | inconclusive: -0.304% | –

SMILES | activity change, negative = inhibition | Potency
O=C(CNC(=O)c1ccccc1)NCC(=O)OCC(=O)c1ccc(F)cc1 | inconclusive: 8.38% | –
CCN(C(=O)COC(=O)CNC(=O)c1sc2ccccc2c1Cl)C1CCCCC1 | – | inconclusive: 23.1 µM [rising, single point]
Cc1cccc(OCC(=O)N/N=C\c2cccn2C)c1C | inactive | –
Cc1ccc(NC(=O)c2cc(S(=O)(=O)N3CCc4ccccc43)cn2C)cc1 | inconclusive: 4.75% | –
C/C(=N\NC(=O)c1ccccc1)c1ccccc1Br | inconclusive: -18.3% | –
O=C(Nc1cccc(-c2nc3ccccc3c(=O)o2)c1)c1ccccc1 | – | inconclusive: 35.5 µM [falling, single point]
Cc1ccc(CNC(=O)Nc2cccs2)cc1 | inconclusive: 0.513% | –
O=C1CCC/C1=c1\s/c(=C\c2cccnc2)c(=O)n1-c1ccccc1 | inactive | –
CCCn1c(SCCC(=O)O)nc2ccccc21 | inactive | –
c1ccn2cc(CSc3nnc4ccccn34)nc2c1 | inactive | –
O=C(COC(=O)c1ccccc1NCCO)NNC(=O)c1cccs1 | inactive | –
COc1ccc(-c2cc3ccccc3oc2=O)cc1NC(=O)c1ccc(Br)o1 | inactive | –
CCN(CC)S(=O)(=O)c1ccc(NC(=O)c2ccc(N3CCCC3=O)cc2)cc1 | inconclusive: 0.18% | –
CCc1ccc(NC(=O)C2=CC(c3ccc(OC)c(OC)c3)=NS(=O)(=O)N2C)cc1 | inconclusive: -22.7% | –
Cc1ccccc1-n1ncc2c([N+](=O)[O-])cc([N+](=O)[O-])cc21 | inactive | –
Cn1c(CC(=O)Nc2ccc(Cl)c(Cl)c2)nnc1SCC(=O)NCc1ccccc1 | inconclusive: 1.05% | –
Cc1cc(C)cc(NC(=O)[C@@H](NC(=O)c2ccco2)C(C)C)c1 | inactive | –
COc1cc(C(=O)NCC(=O)N/N=C/c2cccc(OC(=O)c3ccco3)c2)cc(OC)c1OC | – | inconclusive: 15.8 µM [falling, partial curve, poor fit]
CC(Sc1nnc(C2CC2)n1C1CC1)C(=O)c1ccc(F)cc1 (stereo not drawn) | inactive | –
CC(=O)c1cccc(NS(=O)(=O)c2ccc3c(c2)oc(=O)n3C)c1 | inactive | –

Shown in markdown: 16 of the compounds above

| SMILES | activity change, negative = inhibition | Potency |
| --- | --- | --- |
| O=C(CSc1ncn[nH]1)Nc1ccc2c(c1)OCCO2 | inconclusive: -26% | – |
| O=S(=O)(CCOc1ccccc1)N1CCOCC1 | inconclusive: 1.42% | – |
| COc1ccccc1NC(=O)C/C(C)=N/NC(=O)COc1c(Br)cc(Br)cc1OC | – | inconclusive: 17.8 µM [falling, single point] |
| COc1ccc(-c2ccoc2)cc1[C@H]1[C@H]2C=CC[C@@H](C)[C@@H]2C(=O)N1Cc1ccccc1 | inconclusive: -7.48% | – |
| CN1c2ccccc2C(=O)NC1c1ccc(Cl)cc1 (stereo not drawn) | inactive | – |
| Cc1n[nH]c(C)c1S(=O)(=O)N1CCCC(C(=O)NCc2ccc(F)cc2)C1 (stereo not drawn) | inactive | – |
| O=C(Cn1cnc2ccccc21)Nc1ccc(C(=O)O)cc1 | inconclusive: 2.81% | – |
| COC(=O)c1c(NC(=O)c2ccccc2C(=O)O)sc2c1CCC2 | inconclusive: -0.304% | – |
| O=C(CNC(=O)c1ccccc1)NCC(=O)OCC(=O)c1ccc(F)cc1 | inconclusive: 8.38% | – |
| CCN(C(=O)COC(=O)CNC(=O)c1sc2ccccc2c1Cl)C1CCCCC1 | – | inconclusive: 23.1 µM [rising, single point] |
| Cc1cccc(OCC(=O)N/N=C\c2cccn2C)c1C | inactive | – |
| Cc1ccc(NC(=O)c2cc(S(=O)(=O)N3CCc4ccccc43)cn2C)cc1 | inconclusive: 4.75% | – |
| C/C(=N\NC(=O)c1ccccc1)c1ccccc1Br | inconclusive: -18.3% | – |
| O=C(Nc1cccc(-c2nc3ccccc3c(=O)o2)c1)c1ccccc1 | – | inconclusive: 35.5 µM [falling, single point] |
| Cc1ccc(CNC(=O)Nc2cccs2)cc1 | inconclusive: 0.513% | – |
| O=C1CCC/C1=c1\s/c(=C\c2cccnc2)c(=O)n1-c1ccccc1 | inactive | – |
